Legend:
[1] = Optical signal of a single sensing device (5CB liquid crystal composition blended with dopant) in solutions of different pH, observed under a microscope
Protocol: (§1) The DMOAP-substrate is cut to have a size of 0.5 cm×0.5 cm, on which the frame is positioned. The liquid crystal composition prepared (about 0.25 μl) is drawn with a micropipette and filled in the grid of the frame. A casing having internal space of about 10 mm×25 mm×5 mm is prepared with polydimethylsiloxane. The casing has an inlet and an outlet through which the flowing substance passes. The prepared substrate and the frame filled with the liquid crystal composition are placed in the space of the casing, and two polarizers are arranged and secured at two sides of the casing, to obtain a sensing device. The polarization directions of the two polarizers are perpendicular. The liquid crystal in the liquid crystal composition may be aligned orderly along a direction perpendicular to the two polarizers.
Referring to FIGS. 8(a) to 8(g), 9(a) to 9(g), FIGS. 10(a) to 10(g), and 11(a) to 11(g), sensing devices containing the liquid crystal composition blended with 0.3% of the compound of Formula (I-1), (I-2), (I-3), or (I-4) are positioned in solutions having different pH values respectively. The light transmittance of the sensing devices in the solutions having different pH values are observed under a microscope, to obtain corresponding optical signals. FIGS. 8(a) to 8(g) show optical signals obtained from a sensing device containing the liquid crystal composition blended with 0.3% of the compound of Formula (I-1) positioned in a solution of pH 6.8, pH 7.0, pH 7.2, pH 7.4, pH 7.6, pH 8.0, and pH 8.2 respectively. FIGS. 9(a) to 9(g) show optical signals obtained from a sensing device containing the liquid crystal composition blended with 0.3% of the compound of Formula (I-2) positioned in a solution of pH 6.8, pH 7.0, pH 7.2, pH 7.4, pH 7.6, pH 8.0, and pH 8.2 respectively. FIGS. 10(a) to 10(g) show optical signals obtained from a sensing device containing the liquid crystal composition blended with 0.3% of the compound of Formula (I-3) positioned in a solution of pH 6.8, pH 7.0, pH 7.2, pH 7.4, pH 7.6, pH 8.0, and pH 8.2 respectively. FIGS. 11(a) to 11(g) show optical signals obtained from a sensing device containing the liquid crystal composition blended with 0.3% of the compound of Formula (I-4) positioned in a solution of pH 6.8, pH 7.0, pH 7.2, pH 7.4, pH 7.6, pH 8.0, and pH 8.2 respectively.
Referring to FIGS. 12(a) to 12(f), 13(a) to 13(f), 14(a) to 14(f), and 15(a) to 15(f), sensing devices containing the liquid crystal composition blended with 0.3%, 0.4%, 0.5%, and 0.6% of the compound of Formula (I-1) are positioned in solutions having different pH values respectively. The light transmittance of the sensing devices in the solutions having different pH values are observed under a microscope, to obtain corresponding optical signals. FIGS. 12(a) to 12(f) show optical signals obtained from a sensing device containing the liquid crystal composition blended with 0.3% of the compound of Formula (I-1) positioned in a solution of pH 6.0, pH 6.2, pH 6.4, pH 6.6, pH 6.8 and pH 7.0 respectively. FIGS. 13(a) to 13(f) show optical signals obtained from a sensing device containing the liquid crystal composition blended with 0.4% of the compound of Formula (I-1) positioned in a solution of pH 6.0, pH 6.2, pH 6.4, pH 6.6, pH 6.8 and pH 7.0 respectively. FIGS. 14(a) to 14(f) show optical signals obtained from a sensing device containing the liquid crystal composition blended with 0.5% of the compound of Formula (I-1) positioned in a solution of pH 6.0, pH 6.2, pH 6.4, pH 6.6, pH 6.8 and pH 7.0 respectively. FIGS. 15(a) to 15(f) show optical signals obtained from a sensing device containing the liquid crystal composition blended with 0.6% of the compound of Formula (I-1) positioned in a solution of pH 6.0, pH 6.2, pH 6.4, pH 6.6, pH 6.8 and pH 7.0 respectively.

[2] = Optical signals of four sensing devices positioned at the same time in solutions of different pH, observed under a microscope
Protocol: as §1
Referring to FIGS. 16(a) to 16(f), four sensing devices containing the liquid crystal composition blended with 0.3% of the compound of Formula (I-1), (I-2), (I-3), or (I-4) (from right to left) are positioned in solutions having different pH values respectively. The light transmittance of the sensing devices in the solutions having different pH values are observed under a microscope, to obtain corresponding optical signals.
Referring to FIGS. 17(a) to 17(g), four sensing devices containing the liquid crystal composition blended with 0.3%, 0.4%, 0.5%, and 0.6% of the compound of Formula (I-1) are positioned in solutions of pH 6.0, pH 6.2, pH 6.4, pH 6.6, pH 6.8, pH 7.0 and pH 7.2 respectively. The light transmittance of the sensing devices in the solutions having different pH values are observed under a microscope, to obtain corresponding optical signals.

[3] = liquid crystal composition blended with 0.3% of the compound, FIGS. 8-11, pH 6.8-8.2
[4] = solution of pH 7.2, 0.3% of the compound, FIG. 16(c)

Structure (SMILES): CCCCCCc1ccc(-c2ccc(C(=O)O)cc2)cc1 [Formula (I-1)]
- pH of solution at or above which the sensing device produces a dark optical signal ([1]; blended with 0.3% of the compound, FIG. 12, pH 6.0-7.0): ≥ 6.8
- pH of solution at or above which the sensing device produces a dark optical signal ([1]; blended with 0.4% of the compound, FIG. 13, pH 6.0-7.0): ≥ 6.8
- pH of solution at or above which the sensing device produces a dark optical signal ([1]; blended with 0.5% of the compound, FIG. 14, pH 6.0-7.0): ≥ 6.6
- pH of solution at or above which the sensing device produces a dark optical signal ([1]; blended with 0.6% of the compound, FIG. 15, pH 6.0-7.0): ≥ 6.4
- pH of solution at or above which the sensing device produces a dark optical signal [1, 3]: ≥ 7
- optical signal of sensing device ([2]; solution of pH 6.2, 0.6% of the compound, FIG. 17(b)): dark optical signal
- optical signal of sensing device ([2]; solution of pH 6.4, 0.5% of the compound, FIG. 17(c)): dark optical signal
- optical signal of sensing device ([2]; solution of pH 6.4, 0.6% of the compound, FIG. 17(c)): dark optical signal
- optical signal of sensing device ([2]; solution of pH 6.6, 0.5% of the compound, FIG. 17(d)): dark optical signal
- optical signal of sensing device ([2]; solution of pH 6.6, 0.6% of the compound, FIG. 17(d)): dark optical signal
- optical signal of sensing device ([2]; solution of pH 6.8, 0.3% of the compound, FIG. 17(e)): bright optical signal
- optical signal of sensing device ([2]; solution of pH 7.0, 0.3% of the compound, FIG. 16(b)): dark optical signal
- optical signal of sensing device ([2]; solution of pH 7.0, 0.3% of the compound, FIG. 17(f)): bright optical signal
- optical signal of sensing device [2, 4]: dark optical signal

Structure (SMILES): CCCCCCCCOc1ccc(-c2ccc(C(=O)O)cc2)cc1 [Formula (I-2)]
- pH of solution at or above which the sensing device produces a dark optical signal [1, 3]: ≥ 7.2
- optical signal of sensing device [2, 4]: dark optical signal

Structure (SMILES): CCCCCCCCCCOc1ccc(-c2ccc(C(=O)O)cc2)cc1 [Formula (I-3)]
- pH of solution at or above which the sensing device produces a dark optical signal [1, 3]: ≥ 7.6

Structure (SMILES): CCCCCCCCCCCCOc1ccc(-c2ccc(C(=O)O)cc2)cc1 [Formula (I-4)]
- pH of solution at or above which the sensing device produces a dark optical signal [1, 3]: ≥ 8.2
- optical signal of sensing device ([2]; solution of pH 7.4, 0.3% of the compound, FIG. 16(d)): bright optical signal
- optical signal of sensing device ([2]; solution of pH 7.6, 0.3% of the compound, FIG. 16(e)): bright optical signal
